Assay results taken from patent US6903077, “Methods and products for delivering nucleic acids” (University of Vermont and State Agricultural College).
These are yes or no findings as the source states them, for the method shown. Some results given as binding are weak or reduced against the parent protein; the word gives no strength. Sequences can lack the tags named with a protein.

Target: T1, GST-Z2-P123 (Homo sapiens, UniProt Q9BWE0 SEQ:1-147)
T1 sequence: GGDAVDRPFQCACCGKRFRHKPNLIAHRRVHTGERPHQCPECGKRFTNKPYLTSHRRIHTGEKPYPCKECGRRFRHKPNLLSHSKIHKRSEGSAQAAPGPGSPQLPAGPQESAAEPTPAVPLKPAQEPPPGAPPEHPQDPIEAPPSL
Test: Gel shift Multimers, self-association on DNA

binding: binds
B1: GST-Z2-P123 (protein, not shown: a dimerising Fc or GST)
chain: T1 sequence
